Laboratory results: PubChem BioAssay AID1259405 (NCATS, 2018)

Purpose: 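Knock-downs that lift recombinant protein yield in hamster ovary cells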 (primary screen)
Cells: Chinese hamster CHO-K1 ovary cells with stable secreted eGFP expression
Reagent: single siRNA against mouse genes, 0.8 pmol siRNA per well (2 µl of 400 nM stock)
Timing: 3 days
Read-out: 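Percent of the per-plate non-targeting control median for intracellular GFP per well by laser scanning cytometry and for cell viability by ATP luminescence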
Scale: GFP, % of control: higher = more GFP per well, higher productivity; viability (ATP), % of control: higher = more viable cells (more ATP)
Rule for the call: 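a knock-down is called active if GFP reaches 120% or more of non-targeting control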
Shown is an unselected part of about 50,000 reagents. About 4,000 of them (8%) were called active. 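Mouse siRNA library applied to hamster cells; one well for each siRNA.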

| gene knocked down | PubChem SID | GFP, % of control | viability (ATP), % of control | call |
| --- | --- | --- | --- | --- |
| Or11n2 (olfactory receptor family 11 subfamily N member 2) | SID363544729 | 97.8 | 61.1 | inactive |
| Or11n2 (olfactory receptor family 11 subfamily N member 2) | SID363551057 | 70.1 | 80.7 | inactive |
| Or11n2 (olfactory receptor family 11 subfamily N member 2) | SID363557606 | 94.8 | 72.7 | inactive |
| Kcnd3 | SID363574801 | 76.3 | 104 | inactive |
| Kcnd3 | SID363575857 | 177 | 122 | active |
| Kcnd3 | SID363580433 | 124 | 135 | active |
| Adgrg6 (adhesion G protein-coupled receptor G6) | SID363544115 | 125 | 80.4 | active |
| Adgrg6 (adhesion G protein-coupled receptor G6) | SID363550443 | 104 | 93.2 | inactive |
| Adgrg6 (adhesion G protein-coupled receptor G6) | SID363556992 | 185 | 107 | active |
| Spg7 (SPG7, paraplegin matrix AAA peptidase subunit) | SID363550238 | 63.6 | 102 | inactive |
| Spg7 (SPG7, paraplegin matrix AAA peptidase subunit) | SID363564747 | 82.2 | 72.1 | inactive |
| Spg7 (SPG7, paraplegin matrix AAA peptidase subunit) | SID363574484 | 54.4 | 74.1 | inactive |
| Spg7 (SPG7, paraplegin matrix AAA peptidase subunit) | SID363575540 | 60.3 | 67.7 | inactive |
| Spg7 (SPG7, paraplegin matrix AAA peptidase subunit) | SID363580116 | 27.6 | 39.9 | inactive |
| Spg7 (SPG7, paraplegin matrix AAA peptidase subunit) | SID363588292 | 93.3 | 89.9 | inactive |
| Kl (klotho) | SID363545779 | 57.5 | 66.5 | inactive |
| Kl (klotho) | SID363549292 | 69.1 | 80 | inactive |
| Kl (klotho) | SID363563098 | 86.1 | 73.7 | inactive |
| Zbtb11os1 (zinc finger and BTB domain containing 11, opposite strand 1) | SID363543459 | 103 | 95.4 | inactive |
| Zbtb11os1 (zinc finger and BTB domain containing 11, opposite strand 1) | SID363552952 | 84.8 | 87.2 | inactive |
| Zbtb11os1 (zinc finger and BTB domain containing 11, opposite strand 1) | SID363558800 | 75.4 | 70.9 | inactive |
| Ccdc125 (coiled-coil domain containing 125) | SID363552304 | 58.9 | 37.8 | inactive |
| Ccdc125 (coiled-coil domain containing 125) | SID363585440 | 82 | 98.8 | inactive |
| Ccdc125 (coiled-coil domain containing 125) | SID363585791 | 137 | 121 | active |
| Nol10 (nucleolar protein 10) | SID363539997 | 63 | 54.6 | inactive |
| Nol10 (nucleolar protein 10) | SID363561298 | 61.7 | 77.1 | inactive |
| Nol10 (nucleolar protein 10) | SID363564334 | 71.5 | 84 | inactive |
| Tmem116 (transmembrane protein 116) | SID363547146 | 73.4 | 65.7 | inactive |
| Tmem116 (transmembrane protein 116) | SID363549958 | 67 | 79.3 | inactive |
| Tmem116 (transmembrane protein 116) | SID363588012 | 117 | 140 | inactive |
| Wdr5b (WD repeat domain 5B) | SID363556653 | 43.2 | 22 | inactive |
| Wdr5b (WD repeat domain 5B) | SID363563557 | 99.1 | 77.6 | inactive |
| Wdr5b (WD repeat domain 5B) | SID363587103 | 70.7 | 98.7 | inactive |
| Tnni3k (TNNI3 interacting kinase) | SID363571273 | 42.5 | 36.4 | inactive |
| Tnni3k (TNNI3 interacting kinase) | SID363571625 | 53.6 | 74 | inactive |
| Tnni3k (TNNI3 interacting kinase) | SID363571977 | 66.2 | 74.5 | inactive |
| Vars1 (valyl-tRNA synthetase 1) | SID363584542 | 77.9 | 83.2 | inactive |
| Vars1 (valyl-tRNA synthetase 1) | SID363589572 | 80.2 | 68.1 | inactive |
| Lcorl (ligand dependent nuclear receptor corepressor-like) | SID363562354 | 89.8 | 80.7 | inactive |
| Lcorl (ligand dependent nuclear receptor corepressor-like) | SID363567492 | 65.7 | 72.1 | inactive |
| Lcorl (ligand dependent nuclear receptor corepressor-like) | SID363584849 | 76.5 | 81.1 | inactive |
| Timm10 (translocase of inner mitochondrial membrane 10) | SID363569700 | 80.6 | 107 | inactive |
| Timm10 (translocase of inner mitochondrial membrane 10) | SID363576740 | 54.5 | 63.9 | inactive |
| Timm10 (translocase of inner mitochondrial membrane 10) | SID363578148 | 51.5 | 62.4 | inactive |
| Barhl2 (BarH like homeobox 2) | SID363569551 | 91.5 | 75.2 | inactive |
| Barhl2 (BarH like homeobox 2) | SID363577295 | 90 | 88.2 | inactive |
| Barhl2 (BarH like homeobox 2) | SID363578703 | 59.3 | 73.1 | inactive |
| Lin52 (lin-52 DREAM MuvB core complex component) | SID363552352 | 81.7 | 76.2 | inactive |
| Lin52 (lin-52 DREAM MuvB core complex component) | SID363585488 | 79.8 | 96.1 | inactive |
| Lin52 (lin-52 DREAM MuvB core complex component) | SID363585839 | 79.7 | 139 | inactive |
| Vmn1r49 (vomeronasal 1, receptor 49) | SID363556643 | 47.3 | 70.4 | inactive |
| Vmn1r49 (vomeronasal 1, receptor 49) | SID363563547 | 57.1 | 66.4 | inactive |
| Vmn1r49 (vomeronasal 1, receptor 49) | SID363587093 | 83.8 | 93.5 | inactive |
| Gpr26 (G protein-coupled receptor 26) | SID363571224 | 87.3 | 66.5 | inactive |
| Gpr26 (G protein-coupled receptor 26) | SID363571576 | 96.9 | 88.9 | inactive |
| Gpr26 (G protein-coupled receptor 26) | SID363571928 | 98.6 | 86.1 | inactive |
| Incenp (inner centromere protein) | SID363569613 | 98.1 | 76.7 | inactive |
| Incenp (inner centromere protein) | SID363577357 | 97.4 | 69.8 | inactive |
| Incenp (inner centromere protein) | SID363578765 | 81.8 | 79.2 | inactive |
| Hoxa11 (homeobox A11) | SID363569525 | 61.9 | 78.2 | inactive |
| Hoxa11 (homeobox A11) | SID363577269 | 77.4 | 99.6 | inactive |
| Hoxa11 (homeobox A11) | SID363578677 | 54.2 | 43.7 | inactive |
| Neo1 (neogenin) | SID363573514 | 55.4 | 81 | inactive |
| Neo1 (neogenin) | SID363588753 | 102 | 78.8 | inactive |
| Pdlim3 (PDZ and LIM domain 3) | SID363541456 | 63.9 | 65.9 | inactive |
| Pdlim3 (PDZ and LIM domain 3) | SID363556083 | 38 | 57.8 | inactive |
| Pdlim3 (PDZ and LIM domain 3) | SID363566372 | 30.9 | 34.3 | inactive |
| Alg8 (ALG8 alpha-1,3-glucosyltransferase) | SID363545099 | 2.46 | 58.2 | inactive |
| Alg8 (ALG8 alpha-1,3-glucosyltransferase) | SID363548612 | 68.2 | 62.8 | inactive |
| Alg8 (ALG8 alpha-1,3-glucosyltransferase) | SID363562418 | 71.6 | 82.5 | inactive |
| Hsd11b2 (hydroxysteroid 11-beta dehydrogenase 2) | SID363575075 | 109 | 85.1 | inactive |
| Hsd11b2 (hydroxysteroid 11-beta dehydrogenase 2) | SID363580707 | 208 | 69.1 | active |
| Hsd11b2 (hydroxysteroid 11-beta dehydrogenase 2) | SID363582819 | 99.5 | 65.1 | inactive |
| Gabarapl1 (GABA type A receptor associated protein like 1) | SID363572439 | 67.8 | 70.5 | inactive |
| Gabarapl1 (GABA type A receptor associated protein like 1) | SID363574199 | 105 | 94.5 | inactive |
| Or4k2 (olfactory receptor family 4 subfamily K member 2) | SID363554627 | 79.9 | 67.7 | inactive |
| Or4k2 (olfactory receptor family 4 subfamily K member 2) | SID363568074 | 80.7 | 60.1 | inactive |
| Or4k2 (olfactory receptor family 4 subfamily K member 2) | SID363586133 | 76.3 | 111 | inactive |
| Klhdc8b (kelch domain containing 8B) | SID363542560 | 174 | 40.6 | active |
| Klhdc8b (kelch domain containing 8B) | SID363552051 | 86.3 | 48.5 | inactive |
| Klhdc8b (kelch domain containing 8B) | SID363559656 | 131 | 83 | active |
| Nop16 (NOP16 nucleolar protein) | SID363539655 | 74.9 | 110 | inactive |
| Nop16 (NOP16 nucleolar protein) | SID363560956 | 101 | 87.3 | inactive |
| Nop16 (NOP16 nucleolar protein) | SID363565046 | 111 | 69.5 | inactive |

Single entries from the list.
Value for Tnni3k (TNNI3 interacting kinase) [SID363571273] under “call”: inactive
Value of Neo1 (neogenin) [SID363588753] in “viability (ATP), % of control”: 78.8
Hsd11b2 (hydroxysteroid 11-beta dehydrogenase 2) [SID363580707], GFP, % of control: 208
Entry of Gabarapl1 (GABA type A receptor associated protein like 1) [SID363574199] under “GFP, % of control”: 105
Result for Gpr26 (G protein-coupled receptor 26) [SID363571224] in “viability (ATP), % of control”: 66.5
